Some results are limits rather than exact numbers.

One compound from patent US20240109896A1, “FGFR KINASE INHIBITOR AND USE THEREOF” (YA THERAPEUTICS INC, priority 2021, published 2024) can be followed below.

Holding throughout (format): cell-based
The test system of assay [1] is Hep3B cells. As to the kind of experiment: Human hepatoma cell Hep3B survival test (CellTiter-Glo). The note with it: 72 h, read-out: inhibitory activity on Hep3B cell proliferation IC50 (nM). The procedure:
Example 57: Human Hepatoma Cell Hep3B Survival Test
The Hep3B cell line of human liver cancer is derived from ATCC. Cells are supplemented with McCoy's 5A medium and additionally added fetal bovine serum (IOFBS). Cells are kept in the medium at 37° C., humidity at 95%, and carbon dioxide at 500. Hep3B cells were seeded in 96-well plates at a density of 3500 cells per well with a cell suspension volume of 90 μL per well and cultured at 37° C. in a cell culture incubator containing 500 CO2. […] The 9 concentrations are: 1l μM, 2.5 μM, 0.625 μM, 0.156 μM, 0.039 μM, 0.0098 μM, 0.0024 μM, 0.0006 μM and 0.000015 μM, mix and centrifuge, add 1PL compound DMSO solution to the cell culture medium, and use 1M DMSO as a control, with three parallel side wells for each concentration of each compound. The cells were then placed in a 37° C. incubator and treated with compounds for 72 hours.
A general note: In ATP-based viability assays light output follows the ATP content of the culture.

Assay [2] deals with human gastric cancer cells (SNU-16). As to the kind of experiment: Proliferation inhibition of human gastric cancer cells SNU-16 (CellTiter-Glo). The note with it: 72 h, SNU-16, 3 days. The procedure: (§1) Example 58: Evaluation of Proliferative Inhibition Activity of Human Gastric Cancer Cells and Bladder Cancer Cells
(§2) Using the CellTiter-Glo<TM>Live Cell Assay Kit, The inhibitory effect of the test compound on the proliferation of human gastric cancer cells (SNU-16) and FGFR3 high expression and FGFR3 fusion of FGFR3-TACC3 fused human bladder cancer cells (RT4) was determined. Among them, RT4 medium is added with fetal bovine serum and McCoy's 5A medium with a final concentration of 10%.
(§3) Test steps: SNU-16 and RT4 cells that have reached 80% cell confluency were digested by trypsin, centrifuged and re-suspended for counting, and 3500 and 6000 cells/mL of SNU-16 and RT4 cell suspensions were prepared with medium, respectively. Add a 96-well cell culture plate (90 μL/well) and place in a cell culture incubator containing 5% CO2 at 37° C. […] Take out the 96-well cell culture plate and add CellTiterGlo (CTG, Chemiluminescent Cell Viability Assay) reagent (100 L/well. Mix and centrifuge, and then incubate for 10 min at room temperature. After gentle shaking, the absorbance at 450 nm wavelength was determined on the SpectraMax M5 Reader, and the absorbance at 650 nm was used as a reference (i.e., 450 nm absorbance −650 nm absorbance) to calculate the suppression.

Assay [3] concerns human bladder cancer cells (RT4). As to the kind of experiment: Proliferation inhibition of human bladder cancer cells RT4 (CellTiter-Glo). Conditions: RT-4, 72 h, RT4, 3 days. On the procedure: as §1, §2, §3

Regarding `C=CC(=O)N1CC[C@H](n2nc(C#Cc3cc(OC)cc(OC)c3)c3c(N)ncnc32)C1` [Futibatinib], the IC50 in assay [1] is under 10 nM; in assay [2] it was 0.022 nM; in assay [3], 12.6 nM.
